T/C and survivor count data for 25 molecules are collected here from PubChem BioAssay AID330 (DTP/NCI, 2004).

This assay concerns P388 leukemia ip, CD2F1 mice, survival T/C. Description: NCI In Vivo Anticancer Drug Screen. Data for tumor model P388 Leukemia (intraperitoneal) in CD2F1 (CDF1) mice. The conditions noted are these: T/C endpoint: median survival time, higher T/C = longer survival.
Where [1] appears, read: dose: 60.0 mg/kg/injection, schedule: Q01DX005 (ip), vehicle: Klucel (hydroxypropylcellulose) (HPC).
[2] abbreviates: dose: 120.0 mg/kg/injection, schedule: Q01DX005 (ip), vehicle: Klucel (hydroxypropylcellulose) (HPC).
Where [3] appears, read: dose: 240.0 mg/kg/injection, schedule: Q01DX005 (ip), vehicle: Klucel (hydroxypropylcellulose) (HPC).
The mark [4] stands for this setting: dose: 25.0 mg/kg/injection, schedule: Q01DX005 (ip), vehicle: Klucel (hydroxypropylcellulose) (HPC).
[5] abbreviates: dose: 50.0 mg/kg/injection, schedule: Q01DX005 (ip), vehicle: Klucel (hydroxypropylcellulose) (HPC).
Where [6] appears, read: dose: 100.0 mg/kg/injection, schedule: Q01DX005 (ip), vehicle: Klucel (hydroxypropylcellulose) (HPC).
Where [7] appears, read: dose: 200.0 mg/kg/injection, schedule: Q01DX005 (ip), vehicle: Klucel (hydroxypropylcellulose) (HPC).
Setting [8] is: dose: 6.25 mg/kg/injection, schedule: Q01DX009 (ip), vehicle: water.
The mark [9] stands for this setting: dose: 100.0 mg/kg/injection, schedule: Q01DX009 (ip), vehicle: water.
[10] abbreviates: dose: 100.0 mg/kg/injection, schedule: Q01DX009 (ip), vehicle: saline.
Where [11] appears, read: dose: 200.0 mg/kg/injection, schedule: Q01DX009 (ip), vehicle: saline.
Where [12] appears, read: dose: 25.0 mg/kg/injection, schedule: Q04DX002 (ip), vehicle: saline with Tween-80.
Setting [13] is: dose: 50.0 mg/kg/injection, schedule: Q04DX002 (ip), vehicle: saline with Tween-80.
Where [14] appears, read: dose: 400.0 mg/kg/injection, schedule: Q01DX001 (ip), vehicle: Klucel (hydroxypropylcellulose) (HPC).
Setting [15] is: dose: 100.0 mg/kg/injection, schedule: Q01DX009 (ip), vehicle: saline with Tween-80.
Setting [16] is: dose: 200.0 mg/kg/injection, schedule: Q01DX009 (ip), vehicle: saline with Tween-80.

The list does not hold the whole screen: it gathers tests that were run many times, whatever their T/C, doses with no T/C, and many T/C values between a quarter and a half above the control. Further doses and runs are listed elsewhere. T/C: endpoint of the treated group in % of that of the vehicle group. Some doses have a count of surviving animals in place of a T/C: the source files T/C as zero there, which appears to mark a toxic dose or a test without result, not a measured value. Some doses without a T/C left all or most animals alive at the check, yet need not have been tolerated: the source hardly ever lists a survival T/C far under the control, and the zero likely stands for such cases as well. Survivors were counted at the toxicity check, usually on the fifth day, unless a day is given; later deaths do not show. Schedules are NCI's codes, taken here to give the interval after Q, in days (D) or hours (H), and the number of doses after X. Some doses were run more than once; the results are listed from low to high. Where survival is the endpoint, this PubChem deposit counts one and a half times the control or more as active, and values a quarter to a half above the control carry no call in these data; other NCI protocols may use other cut-offs. Some T/C values are followed by the survivors on the day toxicity was checked, most often the fifth; without a count, all were alive then.

Regarding `CCc1nc(N)nc(N)c1-c1ccc(N(C)Cc2ccccc2)c([N+](=O)[O-])c1`, the T/C runs as follows: under setting [1], 125 % of control; under setting [2], 145 % of control; under setting [3], 145 % of control.
On to `O=C1C(Cl)=C(N2CC2)C(=O)C(Cl)=C1N1CC1`, for which the T/C reads like this: (dose: 0.31 mg/kg/injection, schedule: Q01DX009 (ip), vehicle: saline with Tween-80) 126 % of control; (dose: 0.63 mg/kg/injection, schedule: Q01DX009 (ip), vehicle: saline with Tween-80) 136 % of control; (dose: 1.25 mg/kg/injection, schedule: Q01DX009 (ip), vehicle: saline with Tween-80) 148 % of control; (dose: 2.5 mg/kg/injection, schedule: Q01DX009 (ip), vehicle: saline with Tween-80) 148 % of control. In addition, the survivor count (dose: 20.0 mg/kg/injection, schedule: Q01DX009 (ip), vehicle: saline with Tween-80) is on record as 6 of 6.
Regarding `O/N=C1/C(=N/O)N(c2ccccc2)CN1c1ccccc1`, the survivor count runs as follows: under setting [1], 6 of 6; under setting [2], 6 of 6; under setting [3], 6 of 6.
As for `O=[N+]([O-])c1ccccc1NN=NCCCl`, the T/C reads like this: (dose: 6.25 mg/kg/injection, schedule: Q01DX005 (ip), vehicle: Klucel (hydroxypropylcellulose) (HPC)) 125 % of control; (dose: 12.5 mg/kg/injection, schedule: Q01DX005 (ip), vehicle: Klucel (hydroxypropylcellulose) (HPC)) 125 and 134 % of control; under setting [4], 129 % of control. Besides, the survivor count by setting is: under setting [5], 5 of 5; under setting [6], 4 of 5; under setting [7], 4 of 5.
As for `CC(C=O)[Se]c1ccccc1` (stereo not drawn), the survivor count runs as follows: (dose: 120.0 mg/kg/injection, schedule: Q01DX005 (ip), vehicle: saline with Tween-80) 0 of 6; (dose: 240.0 mg/kg/injection, schedule: Q01DX005 (ip), vehicle: saline with Tween-80) 0 of 6.
On to `N[C@@]1(C(F)(F)F)N[C@](N)(C(F)(F)F)C(F)(F)C(F)(F)C1(F)F`, for which the survivor count is 4 of 5 under setting [4], 0 of 5 under setting [5], 0 of 5 under setting [6] and 0 of 5 under setting [7].
Regarding `COc1cccc2c1C(=O)c1c(O)c3c(c(O)c1C2=O)CC(O)(C(C)=O)CC3OC1CC([N+](C)(C)C)C(O)C(C)O1` (stereo not drawn), the survivor count by setting is: under setting [8], 6 of 6; (dose: 50.0 mg/kg/injection, schedule: Q01DX009 (ip), vehicle: water) 3 of 6; under setting [9], 0 of 6.
`Cc1nc2c([N+](=O)[O-])c(N3CCCCC3)c([N+](=O)[O-])cc2[nH]1`: the survivor count (dose: 400.0 mg/kg/injection, schedule: Q04DX002 (ip), vehicle: saline with Tween-80) is 1 of 6.
On to `CCCCCCCCCCCCCCCC[N+]1([O-])CCCC1`, for which the survivor count under setting [10] is 6 of 6 and the survivor count under setting [11] was 0 of 6.
In the case of `CN=C(N)N/N=C(\C)c1ccc2c(c1)Cc1ccccc1-2`, the T/C reads like this: under setting [12], 127 % of control; under setting [13], 127 and 131 % of control; (dose: 100.0 mg/kg/injection, schedule: Q04DX002 (ip), vehicle: saline with Tween-80) 134 and 137 % of control; (dose: 200.0 mg/kg/injection, schedule: Q04DX002 (ip), vehicle: saline with Tween-80) 143 % of control.
Take `N=c1sccn1CC(O)c1ccccc1` (stereo not drawn): under setting [14], the survivor count is recorded as 0 of 6.
Turning to `CCCCCCCCCCCCSSSCCCCCCCCCCCC`, the survivor count is 6 of 6 (dose: 50.0 mg/kg/injection, schedule: Q01DX009 (ip), vehicle: saline) and 6 of 6 under setting [10].
For the molecule `Cc1coc2c1CCC(C)C2` (stereo not drawn), the survivor count is, setting by setting: under setting [15], 3 of 6; under setting [16], 0 of 6.
On to `O=c1cccc2n1C[C@H]1C[C@@H]2CN2CCCC[C@H]12`, for which the survivor count reads like this: (dose: 25.0 mg/kg/injection, schedule: Q01DX005 (ip), vehicle: saline) 0 of 6; (dose: 50.0 mg/kg/injection, schedule: Q01DX005 (ip), vehicle: saline) 0 of 6; (dose: 100.0 mg/kg/injection, schedule: Q01DX005 (ip), vehicle: saline) 0 of 6; (dose: 200.0 mg/kg/injection, schedule: Q01DX005 (ip), vehicle: saline) 0 of 6.
Turning to `CC(=O)CC(C)=O.CC(=O)CC(C)=O.c1cc[c]([Sn][c]2ccccc2)cc1`, the T/C (dose: 100.0 mg/kg/injection, schedule: Q01DX001 (ip), vehicle: Klucel (hydroxypropylcellulose) (HPC)) is 149 % of control [5 of 6 alive] and the T/C (dose: 200.0 mg/kg/injection, schedule: Q01DX001 (ip), vehicle: Klucel (hydroxypropylcellulose) (HPC)) is 140 % of control. Besides, the survivor count under setting [14] is recorded as 0 of 6.
With `O=c1nc(-c2ccccc2)sc(=O)[nH]1`, for the setting “dose: 200.0 mg/kg/injection, schedule: Q01DX009 (ip), vehicle: Klucel (hydroxypropylcellulose) (HPC)”, the survivor count is 3 of 6.
For the molecule `CCn1c2ccccc2c2cc(N=Nc3ccc4c(c3)c3ccccc3n4CC)ccc21`, the survivor count under setting [16] is given as 4 of 6.
For `O=C1C2=C(C(=O)c3ncccc31)C1C=CC2CC1` (stereo not drawn), the survivor count is on record as 3 of 4 (dose: 200.0 mg/kg/injection, schedule: Q01DX005 (ip), vehicle: DMSO); 2 of 6 (dose: 200.0 mg/kg/injection, schedule: Q01DX005 (ip), vehicle: Klucel + Tween-80); 0 of 5 (dose: 400.0 mg/kg/injection, schedule: Q01DX005 (ip), vehicle: Klucel + Tween-80).
With `CCCCN=C(N)N/N=C(\C)c1cccc2c1Cc1c(/C(C)=N/NC(N)=NCCCC)cccc1-2`, the survivor count by setting is: under setting [12], 3 of 6; under setting [13], 0 of 6.
For the molecule `COP(=O)(OC)OC.COP(=O)(OC)OC.COP(=O)(OC)OC.COP(=O)(OC)OC.COP(=O)(OC)OC.[O-][Cl+3]([O-])([O-])O.[Zn+2]`, the survivor count under setting [11] is 0 of 6 and 1 of 6.
With `O=NNc1ccc2cc3ccc(NN=O)cc3nc2c1`, the T/C was 130 and 133 % of control (dose: 3.12 mg/kg/injection, schedule: Q01DX009 (ip), vehicle: water); 125 and 134 % of control under setting [8]; 125 and 133 % of control (dose: 12.5 mg/kg/injection, schedule: Q01DX009 (ip), vehicle: water); 132 % of control (dose: 25.0 mg/kg/injection, schedule: Q01DX009 (ip), vehicle: water). Also, under setting [9], the survivor count is 6 of 6.
As for `CCCCCCCCCCCCCCCCCCCCCC(=O)OC`, the survivor count (dose: 400.0 mg/kg/injection, schedule: Q04DX003 (ip), vehicle: saline with Tween-80) was 6 of 6.
Consider `Cc1c2oc3c(C)ccc(C(=O)NC4C(=O)NC(C(C)C)C(=O)N(C)CC(=O)N(C)CC(=O)N(C)C(C(C)C)C(=O)OC4C)c3nc-2c(C(=O)NC2C(=O)NC(C(C)C)C(=O)N(C)CC(=O)N(C)CC(=O)N(C)C(C(C)C)C(=O)OC2C)c(N)c1=O` (stereo not drawn), for which the T/C (dose: 0.05 mg/kg/injection, schedule: Q01DX009 (ip), vehicle: water) is 140 % of control.
`OC(Nc1nccs1)C(F)(F)F` (stereo not drawn): the survivor count reads like this: under setting [15], 1 of 6; under setting [16], 0 of 6.
On to `N#CCCCOCCCOCCCOCCCOCCCOCCCC#N`, for which the T/C (dose: 100.0 mg/kg/injection, schedule: Q01DX005 (ip), vehicle: saline with Tween-80) was 130 % of control.
